Assay results reported in PMC7819943, “Rice protein-binding microarrays: a tool to detect cis-acting elements near promoter regions in rice”.
The other results are listed elsewhere or left out.

These sequences were tested against T1, OsSMF1 (Oryza sativa, UniProt Q6ZLB0 1-436) (assay: protein-binding microarray (RPBM); PBS, 2% BSA, 51.3 ng/ul salmon testes DNA, 50 uM zinc acetate, 200 nM TF, 25 C, 1 h; high values mean tight binding). Details: protein: recombinant; tags: N-terminal polyhistidine and DsRed monomer fusion (pET32a); chain copies: 2; label: CyDye5-dUTP incorporated in the synthesized complementary strand; 3' TTTTT single-stranded linker to array surface; dsDNA, one strand shown.
T1 sequence: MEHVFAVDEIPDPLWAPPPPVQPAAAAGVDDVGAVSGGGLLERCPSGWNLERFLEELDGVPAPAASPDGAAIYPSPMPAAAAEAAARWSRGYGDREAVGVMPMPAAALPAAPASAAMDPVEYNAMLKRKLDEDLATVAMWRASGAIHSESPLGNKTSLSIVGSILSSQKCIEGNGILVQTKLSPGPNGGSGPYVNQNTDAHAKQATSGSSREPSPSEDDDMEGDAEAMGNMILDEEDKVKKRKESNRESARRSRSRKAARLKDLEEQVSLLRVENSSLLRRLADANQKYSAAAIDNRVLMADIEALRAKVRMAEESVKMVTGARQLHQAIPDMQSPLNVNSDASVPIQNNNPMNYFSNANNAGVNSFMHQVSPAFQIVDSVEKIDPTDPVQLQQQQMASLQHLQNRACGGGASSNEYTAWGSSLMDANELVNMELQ
Method in brief: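 Transcription factors were made in E. coli BL21-CodonPlus as N-terminal fusions to a polyhistidine tag and DsRed, then purified on Ni–NTA. After primer extension with Cy5-dUTP and blocking with 2% BSA, a custom Agilent array was exposed for 1 h at 25 °C to 200 nM protein in PBS, 2% BSA, salmon testes DNA and 50 µM zinc acetate. Washed arrays were scanned on an Axon 4000B, and the binding signal is per-feature fluorescence intensity in arbitrary units.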

With “CTCCTTGTCCACGTGGCGGCCTCCGATTCGCTGCCACCTCCGGAGTCACCTAGTGCAG” as the sequence, how does the binding signal read?
The binding signal was 23900 fluorescence intensity (a.u.).

How did the binding signal turn out when “CTCATGTTTGTGTACGCATCATTGCTGATTCGTCGTCGACCGGAGTCACCTAGTGCAG” was run?
Its binding signal is 3830 fluorescence intensity (a.u.).

“CATGATCGATCACACGTACGTGACGTTACCAGGCCGCCCGCGGAGTCACCTAGTGCAG” was tested. Which binding signal did it give?
Its binding signal is 5100 fluorescence intensity (a.u.).

“GAAGCCTCCCTCGGCCGCGTCACCACCGGCATCTGGTGCTCGGAGTCACCTAGTGCAG” was tested. Which binding signal did it give?
The binding signal was 8820 fluorescence intensity (a.u.).

With “TGTATAGGTACTCCCGGACCGGTGACTGTCTACGTCACTCCGGAGTCACCTAGTGCAG” as the sequence, how does the binding signal read?
The binding signal was 7430 fluorescence intensity (a.u.).

“CCAGCATCCTATATAGCCTCGCGGCCAGTACTCATCACTCCGGAGTCACCTAGTGCAG” was tested. Which binding signal did it give?
Its binding signal is 3640 fluorescence intensity (a.u.).

“AATGGTGTGAGGCAGGCGGACCCAAAAGTGAGGCATGGCGCGGAGTCACCTAGTGCAG” was tested. Which binding signal did it give?
The binding signal was 24800 fluorescence intensity (a.u.).

Which binding signal does the source give for “AAATGCCATCCCGGACAGAAATGCCCCTGGCTCTTCTTCTCGGAGTCACCTAGTGCAG” here?
The binding signal was 3790 fluorescence intensity (a.u.).

With “TTACGATGTCTTACTACAACTATAATCACAAAGTCATCATCGGAGTCACCTAGTGCAG” as the sequence, how does the binding signal read?
Its binding signal is 3190 fluorescence intensity (a.u.).

“AAAGAAATATGGTAAAACTCCCATGAACAAGGCAGTGAATCGGAGTCACCTAGTGCAG” was tested. Which binding signal did it give?
Its binding signal is 5200 fluorescence intensity (a.u.).

How did the binding signal turn out when “CACGATTGCTCGGTGAGCACTGAGCAGTGACCTCATTCGGCGGAGTCACCTAGTGCAG” was run?
Its binding signal is 3820 fluorescence intensity (a.u.).

With “CTGCCGCGTCATGTCGCGTCGCCGTCGCCGCGCCGTCTCCCGGAGTCACCTAGTGCAG” as the sequence, how does the binding signal read?
Its binding signal is 12400 fluorescence intensity (a.u.).

Which binding signal does the source give for “ATAAGGTCCTCCCTAGAATATATAGATTTTCATGGTTCTTCGGAGTCACCTAGTGCAG” here?
Its binding signal is 6180 fluorescence intensity (a.u.).

With “GGTTATCTGCGTCGTCGTCTGTCATCTCCTCCTCATCTTCCGGAGTCACCTAGTGCAG” as the sequence, how does the binding signal read?
Its binding signal is 4480 fluorescence intensity (a.u.).

With “GCGTGCACAGTTCGTGCAAGTTGGGAGGAGACGCTTGCCACGGAGTCACCTAGTGCAG” as the sequence, how does the binding signal read?
Its binding signal is 3690 fluorescence intensity (a.u.).

How did the binding signal turn out when “GAGCCACCAAACCCTAATCCCCAACACGCACACGCACACGCGGAGTCACCTAGTGCAG” was run?
Its binding signal is 3650 fluorescence intensity (a.u.).

For “AAACAAATTTGCTGACTAGGATTCCACGTCAGCGAAACCACGGAGTCACCTAGTGCAG”, which binding signal is on record?
The binding signal was 30000 fluorescence intensity (a.u.).

For “ACTTACACAGTAATTACACCTCACTTACACCCGCTTACACCGGAGTCACCTAGTGCAG”, which binding signal is on record?
Its binding signal is 5410 fluorescence intensity (a.u.).

Which binding signal does the source give for “GTAATTTTGTGTCACTTGCATGTGGGTCCATATCACTATGCGGAGTCACCTAGTGCAG” here?
Its binding signal is 3620 fluorescence intensity (a.u.).

With “TGGCATGACACATTGATCACTGTCAACTCGCTGAGTCAGCCGGAGTCACCTAGTGCAG” as the sequence, how does the binding signal read?
The binding signal was 12800 fluorescence intensity (a.u.).

Which binding signal does the source give for “TGTGCTGGTTGGATGCTTTGCTGGCTTGGCAGGCCGTGTCCGGAGTCACCTAGTGCAG” here?
Its binding signal is 3910 fluorescence intensity (a.u.).

With “GATAATAGTTTACTCGTTGATTAATCCAATTCGTAATACACGGAGTCACCTAGTGCAG” as the sequence, how does the binding signal read?
The binding signal was 3720 fluorescence intensity (a.u.).

Which binding signal does the source give for “CCGTGGTTGGGGTGGTGGGCCGGGGTGTTACGTTAATGGGCGGAGTCACCTAGTGCAG” here?
The binding signal was 5120 fluorescence intensity (a.u.).

For “TCCCATAACAGTATATGTGGGTGGTTTCGCTGACGTGGCACGGAGTCACCTAGTGCAG”, which binding signal is on record?
The binding signal was 29700 fluorescence intensity (a.u.).

Which binding signal does the source give for “CGTTAATTTGGCATACGTGGCCGCGAGAGTGACTTCTCGTCGGAGTCACCTAGTGCAG” here?
The binding signal was 10700 fluorescence intensity (a.u.).

How did the binding signal turn out when “ACGCTTTGCATGTGTAGACCACACCTTTCATCCTCCACCGCGGAGTCACCTAGTGCAG” was run?
Its binding signal is 3320 fluorescence intensity (a.u.).

For “AACAAGAACAAGGATGCCTCACACGTTCTCGGACACAAGGCGGAGTCACCTAGTGCAG”, which binding signal is on record?
The binding signal was 3480 fluorescence intensity (a.u.).

For “GTTTTGGTATTGGCTATAAAATGACATGGATGTTATTGGACGGAGTCACCTAGTGCAG”, which binding signal is on record?
Its binding signal is 4760 fluorescence intensity (a.u.).

Which binding signal does the source give for “GAGACTAAGTCAGCGTGCCAACGCATATTCAGCGCCACGCCGGAGTCACCTAGTGCAG” here?
The binding signal was 4520 fluorescence intensity (a.u.).

Which binding signal does the source give for “TGAACTCAGATATGACTGACGCTTTGTCAAGGGCTCGAATCGGAGTCACCTAGTGCAG” here?
The binding signal was 4040 fluorescence intensity (a.u.).

With “CACGCGGCCCAACCTGGAATTTGGGCCCACTACACAACTGCGGAGTCACCTAGTGCAG” as the sequence, how does the binding signal read?
Its binding signal is 3510 fluorescence intensity (a.u.).

Which binding signal does the source give for “AGTACACCGTACACGGTGACGTAGCCCGTGCAGCCCACCACGGAGTCACCTAGTGCAG” here?
The binding signal was 9100 fluorescence intensity (a.u.).

With “CTCCTCCCATGCGCCGCCACGTAGGATCGCGCGATCAGATCGGAGTCACCTAGTGCAG” as the sequence, how does the binding signal read?
The binding signal was 10300 fluorescence intensity (a.u.).

For “TGTGTCATGGCTGATGTCAGCTCAGCATATATATATTCAGCGGAGTCACCTAGTGCAG”, which binding signal is on record?
Its binding signal is 14900 fluorescence intensity (a.u.).

Which binding signal does the source give for “CAGTACTGATTAAGCATTCTTTCAATTCGTCTGTTCCCCACGGAGTCACCTAGTGCAG” here?
The binding signal was 25100 fluorescence intensity (a.u.).

How did the binding signal turn out when “GGACTCGGCCGAACATTTGGGAAGAACCAACCACACCACCCGGAGTCACCTAGTGCAG” was run?
Its binding signal is 8210 fluorescence intensity (a.u.).

With “CTAGGGCGTCGGAGGGGCGGAGGTGGAGCTGGAGCGCGGGCGGAGTCACCTAGTGCAG” as the sequence, how does the binding signal read?
The binding signal was 4750 fluorescence intensity (a.u.).

With “AAGTTTATAACTATTTAAGTGACGTATACATAACGAAGAACGGAGTCACCTAGTGCAG” as the sequence, how does the binding signal read?
The binding signal was 5020 fluorescence intensity (a.u.).

“TCCGGCCCGAGCTCTCTGGCCACGGCACGACCGAGATCGTCGGAGTCACCTAGTGCAG” was tested. Which binding signal did it give?
Its binding signal is 3540 fluorescence intensity (a.u.).

How did the binding signal turn out when “ACGAGATTAAAGGCGCCACACCGGCACGGCACGTGCCCTGCGGAGTCACCTAGTGCAG” was run?
Its binding signal is 4430 fluorescence intensity (a.u.).

For “GAGGTTAGACAAGTTTGACCATGTTAGGTGAGTGTTTGGTCGGAGTCACCTAGTGCAG”, which binding signal is on record?
The binding signal was 4150 fluorescence intensity (a.u.).

For “TATTGACTTGAATTGGTTCCTACACTTCATACCAACTTGTCGGAGTCACCTAGTGCAG”, which binding signal is on record?
Its binding signal is 3190 fluorescence intensity (a.u.).
